# B1: Q02218 (protein, UniProt Q02218 1-1023, looked up)
# chain: MFHLRTCAAKLRPLTASQTVKTFSQNRPAAARTFQQIRCYSAPVAAEPFLSGTSSNYVEEMYCAWLENPKSVHKSWDIFFRNTNAGAPPGTAYQSPLPLSRGSLAAVAHAQSLVEAQPNVDKLVEDHLAVQSLIRAYQIRGHHVAQLDPLGILDADLDSSVPADIISSTDKLGFYGLDESDLDKVFHLPTTTFIGGQESALPLREIIRRLEMAYCQHIGVEFMFINDLEQCQWIRQKFETPGIMQFTNEEKRTLLARLVRSTRFEEFLQRKWSSEKRFGLEGCEVLIPALKTIIDKSSENGVDYVIMGMPHRGRLNVLANVIRKELEQIFCQFDSKLEAADEGSGDVKYHLGMYHRRINRVTDRNITLSLVANPSHLEAADPVVMGKTKAEQFYCGDTEGKKVMSILLHGDAAFAGQGIVYETFHLSDLPSYTTHGTVHVVVNNQIGFTTDPRMARSSPYPTDVARVVNAPIFHVNSDDPEAVMYVCKVAAEWRSTFHKDVVVDLVCYRRNGHNEMDEPMFTQPLMYKQIRKQKPVLQKYAELLVSQGVVNQPEYEEEISKYDKICEEAFARSKDEKILHIKHWLDSPWPGFFTLDGQPRSMSCPSTGLTEDILTHIGNVASSVPVENFTIHGGLSRILKTRGEMVKNRTVDWALAEYMAFGSLLKEGIHIRLSGQDVERGTFSHRHHVLHDQNVDKRTCIPMNHLWPNQAPYTVCNSSLSEYGVLGFELGFAMASPNALVLWEAQFGDFHNTAQCIIDQFICPGQAKWVRQNGIVLLLPHGMEGMGPEHSSARPERFLQMCNDDPDVLPDLKEANFDINQLYDCNWVVVNCSTPGNFFHVLRRQILLPFRKPLIIFTPKSLLRHPEARSSFDEMLPGTHFQRVIPEDGPAAQNPENVKRLLFCTGKVYYDLTRERKARDMVGQVAITRIEQLSPFPFDLLLKEVQKYPNAELAWCQEEHKNQGYYDYVKPRLRTTISRAKPVWYAGRDPAAAPATGNKKTHLTELQRLLDTAFDLDVFKNFS
# modifications: full-length
# B2: P61026 (protein, UniProt P61026 1-200, looked up)
# chain: MAKKTYDLLFKLLLIGDSGVGKTCVLFRFSDDAFNTTFISTIGIDFKIKTVELQGKKIKLQIWDTAGQERFHTITTSYYRGAMGIMLVYDITNGKSFENISKWLRNIDEHANEDVERMLLGNKCDMDDKRVVPKGKGEQIAREHGIRFFETSAKANINIEKAFLTLAEDILRKTPVKEPNSENVDISSGGGVTGWKSKCC
# modifications: full-length
# B3: P22626 (protein, UniProt P22626 1-353, looked up)
# chain: MEKTLETVPLERKKREKEQFRKLFIGGLSFETTEESLRNYYEQWGKLTDCVVMRDPASKRSRGFGFVTFSSMAEVDAAMAARPHSIDGRVVEPKRAVAREESGKPGAHVTVKKLFVGGIKEDTEEHHLRDYFEEYGKIDTIEIITDRQSGKKRGFGFVTFDDHDPVDKIVLQKYHTINGHNAEVRKALSRQEMQEVQSSRSGRGGNFGFGDSRGGGGNFGPGPGSNFRGGSDGYGSGRGFGDGYNGYGGGPGGGNFGGSPGYGGGRGGYGGGGPGYGNQGGGYGGGYDNYGGGNYGSGNYNDFGNYNQQPSNYGPMKSGNFGGSRNMGGPYGGGNYGPGGSGGSGGYGGRSRY
# modifications: full-length
# Assay: Proteomics analysis (trypsin digest, LC-MS/MS) of hMSC ghosts and derived CDLs, conditioned or unconditioned by PC3 medium
# Parameters: species or system human
# Settings: LC-MS/MS peak area per protein; for Ratio of expression Cond. CDLs/Cond. Ghosts: CDLs derived from conditioned hMSCs versus conditioned ghosts; for Ratio of expression Cond Ghosts/Ghosts: hMSC ghosts conditioned by PC3 medium versus unconditioned ghosts
molecule,measurement,value
B1,Ratio of expression Cond. CDLs/Cond. Ghosts,8%
same,Ratio of expression Cond Ghosts/Ghosts,100%
B2,Ratio of expression Cond. CDLs/Cond. Ghosts,7%
same,Ratio of expression Cond Ghosts/Ghosts,100%
B3,Ratio of expression Cond. CDLs/Cond. Ghosts,7%
same,Ratio of expression Cond Ghosts/Ghosts,100%

# — patent US11065203B2, “Liposomal compositions and uses of same” (Technion Research & Development Foundation Limited, priority 2009, dated 2021)
